Among the data in article PMC7819943, “Rice protein-binding microarrays: a tool to detect cis-acting elements near promoter regions in rice” are binding signal values, retold here.

Some of the results follow.

This assay has as its target T1, OsSMF1 (Oryza sativa, UniProt Q6ZLB0 1-436).
T1 sequence: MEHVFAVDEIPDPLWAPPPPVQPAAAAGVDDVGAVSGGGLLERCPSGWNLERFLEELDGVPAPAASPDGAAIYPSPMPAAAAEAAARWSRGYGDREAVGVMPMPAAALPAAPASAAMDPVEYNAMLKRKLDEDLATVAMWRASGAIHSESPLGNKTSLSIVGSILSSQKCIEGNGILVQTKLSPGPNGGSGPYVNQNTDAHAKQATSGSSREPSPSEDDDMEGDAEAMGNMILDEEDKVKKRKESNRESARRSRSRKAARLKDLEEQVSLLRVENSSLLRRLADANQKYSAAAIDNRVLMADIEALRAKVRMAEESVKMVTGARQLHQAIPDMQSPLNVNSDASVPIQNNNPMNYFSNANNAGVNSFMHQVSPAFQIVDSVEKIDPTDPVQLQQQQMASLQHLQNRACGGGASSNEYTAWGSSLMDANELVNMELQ
In words: protein-binding microarray (RPBM); PBS, 2% BSA, 51.3 ng/ul salmon testes DNA, 50 uM zinc acetate, 200 nM TF, 25 C, 1 h; high values mean tight binding. To be noted: protein: recombinant; tags: N-terminal polyhistidine and DsRed monomer fusion (pET32a); chain copies: 2; label: CyDye5-dUTP incorporated in the synthesized complementary strand; 3' TTTTT single-stranded linker to array surface; dsDNA, one strand shown. Summed up:
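Binding signal here means per-feature fluorescence intensity in arbitrary units. The values were read on an Axon 4000B scanner after a custom Agilent array, double-stranded by primer extension with Cy5-dUTP, was incubated with 200 nM protein at 25 °C for 1 h in PBS with 2% BSA, salmon testes DNA and 50 µM zinc acetate, then washed. The proteins were transcription factors with an N-terminal polyhistidine tag and DsRed, expressed in E. coli BL21-CodonPlus and purified on Ni–NTA.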
As to “CTGGAGGAAATCAGAGTTGGTCCGGCTCAAGTTCCACGAGCGGAGTCACCTAGTGCAG”, the binding signal is 5240 fluorescence intensity (a.u.).
As for “CCTGAACTTGTTCAGAGGGAGAACAAGTTGACATAGTATACGGAGTCACCTAGTGCAG”, the figure is 11200 fluorescence intensity (a.u.).
Regarding “CACTTTACAACAGTAAACAATCACAACTTCCGTAAGATCTCGGAGTCACCTAGTGCAG”, the binding signal was 3150 fluorescence intensity (a.u.).
Take “GCTGTCCTGCTCGTCGGCCTCCACGCGCGCTCATCGGCCTCGGAGTCACCTAGTGCAG”: the binding signal is 3240 fluorescence intensity (a.u.).
As for “CGGGTCACCCACGCAACGCCGCCTCACGCCGCCGCACCATCGGAGTCACCTAGTGCAG”, the figure is 5280 fluorescence intensity (a.u.).
Turning to “CACTGACACGAACCGCCATAGCGGAGCCACCTCCACGTCGCGGAGTCACCTAGTGCAG”, the binding signal was 3730 fluorescence intensity (a.u.).
As for “CTCTCGAGGATGAAAACTCTTTCCCGGATGCACGCCAATCCGGAGTCACCTAGTGCAG”, the figure is 3450 fluorescence intensity (a.u.); as for “ATTGACGCGCCTCGGTATTACCTCACTAGCTGCGTCATTGCGGAGTCACCTAGTGCAG”, 6460 fluorescence intensity (a.u.).
As for “GCTGCAGACACGATTAGGAGATCGTGCATTGCCACCATCGCGGAGTCACCTAGTGCAG”, the figure is 3290 fluorescence intensity (a.u.); as for “ATCTCGGAAGAAGGTTTTATTGCCCTGTACAAGCTTGCAACGGAGTCACCTAGTGCAG”, 3790 fluorescence intensity (a.u.).
As for “TAAGCGCAGGGTATCGACGCGATGGACACTAGGCATGGCCCGGAGTCACCTAGTGCAG”, the figure is 3630 fluorescence intensity (a.u.).
Take “TGCACACTATCATTACTATACACGTATATATTTCATCAGCCGGAGTCACCTAGTGCAG”: the binding signal was 3700 fluorescence intensity (a.u.).
As for “CTGAGCTGTTGTCATGCGTAGCAATGTGTTTCTCCATACTCGGAGTCACCTAGTGCAG”, the figure is 3140 fluorescence intensity (a.u.); as for “TTGCCAGTTTGTGCTGGAGTACACATCATTGCTGATTCAACGGAGTCACCTAGTGCAG”, 7990 fluorescence intensity (a.u.).
As to “TGTATGTATCATATGCAGATCGATGGACACGTATTAAGCTCGGAGTCACCTAGTGCAG”, the binding signal is 5490 fluorescence intensity (a.u.).
As for “CGCGCCCACGCCAACGCCACCACGACCCGTTCCGTCTGTTCGGAGTCACCTAGTGCAG”, the figure is 3470 fluorescence intensity (a.u.).
As for “CATCTTCATCAGTTTCGCCTATGGACGTGTCATGTTATCTCGGAGTCACCTAGTGCAG”, the figure is 4750 fluorescence intensity (a.u.); as for “TTGGGTTCAGTATGGACCGGGTCCACGCCTCACCTCGCCTCGGAGTCACCTAGTGCAG”, 3160 fluorescence intensity (a.u.).
As for “TGATTTACTGCATGTGAGCTTGTTCGAGAGAGCATTTGCCCGGAGTCACCTAGTGCAG”, the figure is 21600 fluorescence intensity (a.u.); as for “AATCCAATCTTGACTTGGCAGTTGTGTTCGCCACCGAACGCGGAGTCACCTAGTGCAG”, 4240 fluorescence intensity (a.u.).
For “TATTCCAGCATTGTCTTAAACCGTAAATAATACAAATATACGGAGTCACCTAGTGCAG”, the binding signal is 28500 fluorescence intensity (a.u.).
As for “GCCCTTGCCGCCACGCCACCCGCCCGCCGCTACCGCCGCTCGGAGTCACCTAGTGCAG”, the figure is 7150 fluorescence intensity (a.u.); as for “GTTTGAGGAAGAAAGCACGTCGTTTTCCACGTGCACGCTTCGGAGTCACCTAGTGCAG”, 6500 fluorescence intensity (a.u.).
